From US20200246284A1 (Academia Sinica, priority 2015, published 2020)
For at least one compound, name, drawing or mass did not settle the structure.

Experiments:
H1299 cells = assay: Cell cycle distribution; type: cell-based, human
Osteosarcoma cell lines = assay: Cytotoxicity, sarcoma panel (Table 30); type: cell-based, human; design: unit not given beside the values; details: 3 of 5 osteosarcoma lines
DNA = assay: Alkaline agarose gel shifting assay, DNA cross-linking; type: biochemical
H526 xenograft = assay: SCLC H526 xenograft in nude mice; type: in vivo, mouse; details: 40 mg/kg i.v. once every two days x4
[1] = tested on: MV4;11-GFP/Luciferase cells in NSG mice; assay: MV4;11 AML xenograft; type: in vivo, mouse; details: 30 mg/kg every second day x5 from d14; day 28
[2] = tested on: A673 Ewing's sarcoma cell line; assay: Combination cytotoxicity, Alamar blue, Compusyn; type: cell-based, human
human B-cell lymphomas = assay: Cell cycle and DNA repair proteins after treatment; type: cell-based
[3] = tested on: AML-2 CD34+ cells in NSG mice; assay: Primary MLL-AF9+ pediatric AML (AML-2) xenograft; type: in vivo, mouse; details: 30 mg/kg every other day x5 from day 35
[4] = tested on: primary patient Ewing's sarcoma xenograft in NSG mice; assay: Cyclophosphamide-resistant primary Ewing's sarcoma xenograft; type: in vivo, mouse; details: cyclophosphamide 70 mg/kg i.p. x3, then BO-1055 30 mg/kg iv x4
[5] = tested on: JEKO-1-GFP-Luc cells in NSG mice; assay: Mantle cell lymphoma xenograft; type: in vivo, mouse
H526 xenografts = assay: SCLC H526 xenograft in NSG mice; type: in vivo, mouse
Excerpt: Xenografts of GFP/Luciferase-labeled H526 were established in groups of ten NSG male mice aged 12 wks by subcutaneous injection of 50,000 tumor cells.

[6] = tested on: A204 xenografts in nude mice; assay: A204 rhabdomyosarcoma xenograft; type: in vivo, mouse; details: 30 mg/kg alternate days, five doses
[7] = tested on: MA-10-W51 cells in NSG mice; assay: MA-10-W51 xenograft, single dose; type: in vivo, mouse; details: single dose 30 mg/kg at day 10; day 50
[8] = tested on: A673 xenografts in NSG mice; assay: A673 Ewing's sarcoma xenograft; type: in vivo, mouse; details: 30 mg/kg, tail vein

Question: What does the source list for `CN(C)CCNC(=O)c1cccc(NC(=O)Nc2ccc(N(CCCl)CCCl)cc2)c1` [BO-1055, Ureidomustine]?
Answer: cell cycle effect (H1299 cells): induced significant G2/M arrest; IC50 (Osteosarcoma cell lines): >10.0->100.0; DNA inter-strand cross-linking (DNA): able to induce DNA inter-strand cross-linking; efficacy compared with positive controls (H526 xenograft): more effective than Irinotecan or etoposide; tumor by bioimaging [1]: no significantly detectable tumor in any of the five BO-1055 treated mice; interaction in combination ([2]; with PU-H71): exhibits synergism; interaction in combination ([2]; with topotecan, SN-38, doxorubicin, PU-H71): synergistic cytotoxicity; Bcl-6 level (human B-cell lymphomas): down-regulated; cell cycle effect (human B-cell lymphomas): accumulation of cells in S-phase; tumor by bioimaging [3]: no detectable tumor by day 47; tumor growth [4]: regression of cyclophosphamide-refractory tumors; tumor ([5]; 30 mg/kg i.v. every other day for 10 days, 7 wks): no grossly observable tumor in any of the five mice; survival ([5]; 75 days): all alive at 75 days; tumor by bioimaging (H526 xenografts; 30 mg/kg i.v. every second day d12-d30, through d26): no tumor was detectable through d26; total photon emission, treated vs control (H526 xenografts; day 20 to 30): two log difference; tumor growth [6]: Complete regression of tumors; leukemia engraftment [7]: undetectable or borderline engrafted at best; tumor growth [8]: complete regression of tumor growth
